Source: PubChem BioAssay AID652243 (Drosophila RNAi Screening Center, 2013)
The screen tested about 24,000 reagents; below is a random part of those with a known target gene and a result. Of all reagents, 246 (1%) are marked active. 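Plates not normalised; calls are printed but the firefly/Renilla ratio behind them is not deposited; fold cut for lowering reported inconsistently.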 The raw values are shown without normalisation. Unmarked entries are inactive. Not given: the amount of reagent.

- Screen: 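Knock-downs that decrease or increase androgen receptor reporter signal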 (primary screen)
- Cell system: Drosophila S2R+ cells
- Reagents: long dsRNA against Drosophila genes
- Duration: 72 h (48 h, then 24 h hormone)
- Conditions: synthetic androgen R1881 at 10 nM for 24 h
- Read-out: 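Firefly light from an androgen-responsive reporter and Renilla control light per well, raw and unnormalised, for each of two replicates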
- Scale: firefly reporter light: higher = more light from androgen-responsive reporter; Renilla control light: higher = more constitutive control signal (cell number, transfection)
- Call rule: 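Across duplicate plates, a knock-down whose log firefly/Renilla ratio shifted a set fold down or up from the GFP/LacZ control mean was a hit; the downward cut appears as both 1.5 and 3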
- Calls: active = hit: reporter lowered or raised; inactive = no hit

CG9259 [DRSC03174] | firefly reporter light, replicate 1 = 1.69e5; firefly reporter light, replicate 2 = 1.37e5; Renilla control light, replicate 1 = 1.66e6; Renilla control light, replicate 2 = 1.09e6
CG15715 [DRSC10216] | firefly reporter light, replicate 1 = 2.26e5; firefly reporter light, replicate 2 = 2.38e5; Renilla control light, replicate 1 = 2.05e6; Renilla control light, replicate 2 = 2.55e6
CG15715 [DRSC25332] | firefly reporter light, replicate 1 = 8.10e5; firefly reporter light, replicate 2 = 8.22e5; Renilla control light, replicate 1 = 8.87e5; Renilla control light, replicate 2 = 8.94e5
COX7C [DRSC06831] | firefly reporter light, replicate 1 = 2.93e5; firefly reporter light, replicate 2 = 3.31e5; Renilla control light, replicate 1 = 2.51e6; Renilla control light, replicate 2 = 2.55e6
CG4080 [DRSC10398] | firefly reporter light, replicate 1 = 1.09e6; firefly reporter light, replicate 2 = 4.79e5; Renilla control light, replicate 1 = 1.36e6; Renilla control light, replicate 2 = 6.62e5
stops [DRSC15095] | firefly reporter light, replicate 1 = 2.09e5; firefly reporter light, replicate 2 = 1.58e5; Renilla control light, replicate 1 = 2.26e6; Renilla control light, replicate 2 = 2.30e6
stops [DRSC15096] | firefly reporter light, replicate 1 = 2.54e5; firefly reporter light, replicate 2 = 2.55e5; Renilla control light, replicate 1 = 2.44e6; Renilla control light, replicate 2 = 3.57e6
stops [DRSC15097] | firefly reporter light, replicate 1 = 1.57e5; firefly reporter light, replicate 2 = 2.25e5; Renilla control light, replicate 1 = 2.04e6; Renilla control light, replicate 2 = 2.84e6
NdufA3 [DRSC18431] | firefly reporter light, replicate 1 = 4.07e5; firefly reporter light, replicate 2 = 4.19e5; Renilla control light, replicate 1 = 2.19e6; Renilla control light, replicate 2 = 2.74e6
CG9525 [DRSC03249] | firefly reporter light, replicate 1 = 1.88e5; firefly reporter light, replicate 2 = 1.68e5; Renilla control light, replicate 1 = 1.48e6; Renilla control light, replicate 2 = 1.33e6
CG13698 [DRSC10047] | firefly reporter light, replicate 1 = 29894; firefly reporter light, replicate 2 = 52209; Renilla control light, replicate 1 = 2.76e5; Renilla control light, replicate 2 = 2.61e5
Nup98-96 [DRSC14209] | firefly reporter light, replicate 1 = 83399; firefly reporter light, replicate 2 = 74165; Renilla control light, replicate 1 = 1.10e6; Renilla control light, replicate 2 = 1.14e6
Nup98-96 [DRSC14210] | firefly reporter light, replicate 1 = 1.01e5; firefly reporter light, replicate 2 = 1.61e5; Renilla control light, replicate 1 = 2.32e6; Renilla control light, replicate 2 = 2.11e6
Polr1H [DRSC14594] | firefly reporter light, replicate 1 = 48626; firefly reporter light, replicate 2 = 72759; Renilla control light, replicate 1 = 3.39e5; Renilla control light, replicate 2 = 3.47e5
Polr1H [DRSC28980] | firefly reporter light, replicate 1 = 5.25e5; firefly reporter light, replicate 2 = 4.94e5; Renilla control light, replicate 1 = 1.45e6; Renilla control light, replicate 2 = 1.42e6
CG12581 [DRSC12206] | firefly reporter light, replicate 1 = 64417; firefly reporter light, replicate 2 = 69461; Renilla control light, replicate 1 = 4.77e5; Renilla control light, replicate 2 = 4.77e5
CG12581 [DRSC12207] | firefly reporter light, replicate 1 = 58699; firefly reporter light, replicate 2 = 59354; Renilla control light, replicate 1 = 1.57e6; Renilla control light, replicate 2 = 7.83e5
Spc105R [DRSC11663] | firefly reporter light, replicate 1 = 3.63e5; firefly reporter light, replicate 2 = 2.44e5; Renilla control light, replicate 1 = 2.46e6; Renilla control light, replicate 2 = 2.49e6
Spc105R [DRSC39104] | firefly reporter light, replicate 1 = 4.92e5; firefly reporter light, replicate 2 = 4.43e5; Renilla control light, replicate 1 = 7.37e5; Renilla control light, replicate 2 = 7.97e5
SmD2 [DRSC12536] | firefly reporter light, replicate 1 = 47068; firefly reporter light, replicate 2 = 28290; Renilla control light, replicate 1 = 2.38e5; Renilla control light, replicate 2 = 3.27e5
SmD2 [DRSC28703] | firefly reporter light, replicate 1 = 7.04e5; firefly reporter light, replicate 2 = 4.66e5; Renilla control light, replicate 1 = 1.83e6; Renilla control light, replicate 2 = 1.43e6

3 entries already listed, arranged by “firefly reporter light, replicate 2”, low to high:
CG12581 [DRSC12207] | firefly reporter light, replicate 1 = 58699; firefly reporter light, replicate 2 = 59354; Renilla control light, replicate 1 = 1.57e6; Renilla control light, replicate 2 = 7.83e5
Spc105R [DRSC11663] | firefly reporter light, replicate 1 = 3.63e5; firefly reporter light, replicate 2 = 2.44e5; Renilla control light, replicate 1 = 2.46e6; Renilla control light, replicate 2 = 2.49e6
Spc105R [DRSC39104] | firefly reporter light, replicate 1 = 4.92e5; firefly reporter light, replicate 2 = 4.43e5; Renilla control light, replicate 1 = 7.37e5; Renilla control light, replicate 2 = 7.97e5
